This data set concerns Aβ1–40. The data set is described as follows: MALDI MS analysis of cleavage products. It is filed as biochemical. Conditions: 10 µM Aβ1–40, 37°C, 10, 60 and 360 min.

This note sets out measurements from PMC4121237, “Engineering Neprilysin Activity and Specificity to Create a Novel Therapeutic for Alzheimer’s Disease” (PLoS ONE, 2014).

B1: NEPv: lead variant at round 2, human NEP ectodomain with the two mutations G399V and G714K (protein, UniProt P08473 52-750, looked up, variant G399V G714K)
extracellular domain: YDDGICKSSDCIKSAARLIQNMDATTEPCTDFFKYACGGWLKRNVIPETSSRYGNFDILRDELEVVLKDVLQEPKTEDIVAVQKAKALYRSCINESAIDSRGGEPLLKLLPDIYGWPVATENWEQKYGASWTAEKAIAQLNSKYGKKVLINLFVGTDDKNSVNHVIHIDQPRLGLPSRDYYECTGIYKEACTAYVDFMISVARLIRQEERLPIDENQLALEMNKVMELEKEIANATAKPEDRNDPMLLYNKMTLAQIQNNFSLEINGKPFSWLNFTNEIMSTVNISITNEEDVVVYAPEYLTKLKPILTKYSARDLQNLMSWRFIMDLVSSLSRTYKESRNAFRKALYVTTSETATWRRCANYVNGNMENAVGRLYVEAAFAGESKHVVEDLIAQIREVFIQTLDDLTWMDAETKKRAEEKALAIKERIGYPDDIVSNDNKLNNEYLELNYKEDEYFENIIQNLKFSQSKQLKKLREKVDKDEWISGAAVVNAFYSSGRNQIVFPAGILQPPFFSAQQSNSLNYGGIGMVIGHEITHGFDDNGRNFNKDGDLVDWWTQQSASNFKEQSQCMVYQYGNFSWDLAGGQHLNGINTLGENIADNGGLGQAYRAYQNYIKKNGEEKLLPGLDLNHKQLFFLNFAQVWCGTYRPEYAVNSIKTDVHSPKNFRIIGTLQNSAEFSEAFHCRKNSYMNPEKKCRVW
modifications: extracellular domain
Turning to B1, the “predominant / preferential cleavage site(s) in Aβ1–40” value is “Phe^20-Ala^21”.

B2: NEP G714K: single mutant G714K of the human NEP ectodomain (protein, UniProt P08473 52-750, looked up, variant G714K)
extracellular domain: YDDGICKSSDCIKSAARLIQNMDATTEPCTDFFKYACGGWLKRNVIPETSSRYGNFDILRDELEVVLKDVLQEPKTEDIVAVQKAKALYRSCINESAIDSRGGEPLLKLLPDIYGWPVATENWEQKYGASWTAEKAIAQLNSKYGKKVLINLFVGTDDKNSVNHVIHIDQPRLGLPSRDYYECTGIYKEACTAYVDFMISVARLIRQEERLPIDENQLALEMNKVMELEKEIANATAKPEDRNDPMLLYNKMTLAQIQNNFSLEINGKPFSWLNFTNEIMSTVNISITNEEDVVVYAPEYLTKLKPILTKYSARDLQNLMSWRFIMDLVSSLSRTYKESRNAFRKALYGTTSETATWRRCANYVNGNMENAVGRLYVEAAFAGESKHVVEDLIAQIREVFIQTLDDLTWMDAETKKRAEEKALAIKERIGYPDDIVSNDNKLNNEYLELNYKEDEYFENIIQNLKFSQSKQLKKLREKVDKDEWISGAAVVNAFYSSGRNQIVFPAGILQPPFFSAQQSNSLNYGGIGMVIGHEITHGFDDNGRNFNKDGDLVDWWTQQSASNFKEQSQCMVYQYGNFSWDLAGGQHLNGINTLGENIADNGGLGQAYRAYQNYIKKNGEEKLLPGLDLNHKQLFFLNFAQVWCGTYRPEYAVNSIKTDVHSPKNFRIIGTLQNSAEFSEAFHCRKNSYMNPEKKCRVW
modifications: extracellular domain
notes: single mutant G714K of the human NEP ectodomain
As to B2, the “predominant / preferential cleavage site(s) in Aβ1–40” value is reported as “Leu^17-Val^18”.

B3: NEP G399V: single mutant G399V of the human NEP ectodomain (protein, UniProt P08473 52-750, looked up, variant G399V)
extracellular domain: YDDGICKSSDCIKSAARLIQNMDATTEPCTDFFKYACGGWLKRNVIPETSSRYGNFDILRDELEVVLKDVLQEPKTEDIVAVQKAKALYRSCINESAIDSRGGEPLLKLLPDIYGWPVATENWEQKYGASWTAEKAIAQLNSKYGKKVLINLFVGTDDKNSVNHVIHIDQPRLGLPSRDYYECTGIYKEACTAYVDFMISVARLIRQEERLPIDENQLALEMNKVMELEKEIANATAKPEDRNDPMLLYNKMTLAQIQNNFSLEINGKPFSWLNFTNEIMSTVNISITNEEDVVVYAPEYLTKLKPILTKYSARDLQNLMSWRFIMDLVSSLSRTYKESRNAFRKALYVTTSETATWRRCANYVNGNMENAVGRLYVEAAFAGESKHVVEDLIAQIREVFIQTLDDLTWMDAETKKRAEEKALAIKERIGYPDDIVSNDNKLNNEYLELNYKEDEYFENIIQNLKFSQSKQLKKLREKVDKDEWISGAAVVNAFYSSGRNQIVFPAGILQPPFFSAQQSNSLNYGGIGMVIGHEITHGFDDNGRNFNKDGDLVDWWTQQSASNFKEQSQCMVYQYGNFSWDLAGGQHLNGINTLGENIADNGGLGQAYRAYQNYIKKNGEEKLLPGLDLNHKQLFFLNFAQVWCGTYRPEYAVNSIKTDVHSPGNFRIIGTLQNSAEFSEAFHCRKNSYMNPEKKCRVW
modifications: extracellular domain
notes: single mutant G399V of the human NEP ectodomain
As to B3, the “predominant / preferential cleavage site(s) in Aβ1–40” value is recorded as “Phe^19-Phe^20”.

B4: wild-type NEP: soluble extracellular domain (amino acids 52–749) of wild type human NEP (neprilysin), tagged, recombinantly expressed (protein, UniProt P08473 52-749, looked up, fragment)
chain: YDDGICKSSDCIKSAARLIQNMDATTEPCTDFFKYACGGWLKRNVIPETSSRYGNFDILRDELEVVLKDVLQEPKTEDIVAVQKAKALYRSCINESAIDSRGGEPLLKLLPDIYGWPVATENWEQKYGASWTAEKAIAQLNSKYGKKVLINLFVGTDDKNSVNHVIHIDQPRLGLPSRDYYECTGIYKEACTAYVDFMISVARLIRQEERLPIDENQLALEMNKVMELEKEIANATAKPEDRNDPMLLYNKMTLAQIQNNFSLEINGKPFSWLNFTNEIMSTVNISITNEEDVVVYAPEYLTKLKPILTKYSARDLQNLMSWRFIMDLVSSLSRTYKESRNAFRKALYGTTSETATWRRCANYVNGNMENAVGRLYVEAAFAGESKHVVEDLIAQIREVFIQTLDDLTWMDAETKKRAEEKALAIKERIGYPDDIVSNDNKLNNEYLELNYKEDEYFENIIQNLKFSQSKQLKKLREKVDKDEWISGAAVVNAFYSSGRNQIVFPAGILQPPFFSAQQSNSLNYGGIGMVIGHEITHGFDDNGRNFNKDGDLVDWWTQQSASNFKEQSQCMVYQYGNFSWDLAGGQHLNGINTLGENIADNGGLGQAYRAYQNYIKKNGEEKLLPGLDLNHKQLFFLNFAQVWCGTYRPEYAVNSIKTDVHSPGNFRIIGTLQNSAEFSEAFHCRKNSYMNPEKKCRV
modifications: extracellular domain tag
notes: soluble extracellular domain (amino acids 52–749) of wild type human NEP (neprilysin), tagged, recombinantly expressed
For B4, the “predominant / preferential cleavage site(s) in Aβ1–40” value was “Lys^16-Leu^17, Leu^17-Val^18 and Phe^19-Phe^20”.
